This passage reports log2 fold change results from the supplement of paper PMC10849652.

Protein sequences, listed by entry. Tags and fused reporters are not part of them. Lines headed by an entry give the natural chain unless they say otherwise; changes in a name come on top.
UniProt Q9Y294, whole entry, looked up: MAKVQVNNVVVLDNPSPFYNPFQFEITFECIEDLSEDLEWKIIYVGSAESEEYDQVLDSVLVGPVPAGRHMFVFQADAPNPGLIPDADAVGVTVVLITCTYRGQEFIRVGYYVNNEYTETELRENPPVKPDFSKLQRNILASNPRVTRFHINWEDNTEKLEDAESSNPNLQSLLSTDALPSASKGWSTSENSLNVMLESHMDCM
UniProt Q9NVP2, whole entry, looked up: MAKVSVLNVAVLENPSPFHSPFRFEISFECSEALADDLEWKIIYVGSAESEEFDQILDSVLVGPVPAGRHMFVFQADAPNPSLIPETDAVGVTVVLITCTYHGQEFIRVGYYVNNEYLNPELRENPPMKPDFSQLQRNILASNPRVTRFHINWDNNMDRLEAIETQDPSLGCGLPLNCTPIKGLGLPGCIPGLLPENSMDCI
UniProt P00966: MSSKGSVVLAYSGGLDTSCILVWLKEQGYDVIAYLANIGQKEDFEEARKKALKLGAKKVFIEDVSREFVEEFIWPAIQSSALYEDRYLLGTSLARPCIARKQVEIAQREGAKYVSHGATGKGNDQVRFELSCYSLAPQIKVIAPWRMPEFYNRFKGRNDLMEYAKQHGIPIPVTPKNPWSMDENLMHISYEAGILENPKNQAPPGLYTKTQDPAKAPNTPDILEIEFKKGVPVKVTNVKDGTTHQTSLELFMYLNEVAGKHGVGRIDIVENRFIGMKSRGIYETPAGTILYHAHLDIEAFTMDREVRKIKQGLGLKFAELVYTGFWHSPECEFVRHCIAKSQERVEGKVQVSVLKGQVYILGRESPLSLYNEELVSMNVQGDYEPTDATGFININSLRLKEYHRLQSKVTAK
UniProt P30049: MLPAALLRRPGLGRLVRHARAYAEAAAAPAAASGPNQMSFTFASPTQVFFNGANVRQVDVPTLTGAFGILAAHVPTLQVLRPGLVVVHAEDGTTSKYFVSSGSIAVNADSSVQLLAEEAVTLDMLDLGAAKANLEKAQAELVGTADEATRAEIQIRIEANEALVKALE
UniProt Q9Y4P1: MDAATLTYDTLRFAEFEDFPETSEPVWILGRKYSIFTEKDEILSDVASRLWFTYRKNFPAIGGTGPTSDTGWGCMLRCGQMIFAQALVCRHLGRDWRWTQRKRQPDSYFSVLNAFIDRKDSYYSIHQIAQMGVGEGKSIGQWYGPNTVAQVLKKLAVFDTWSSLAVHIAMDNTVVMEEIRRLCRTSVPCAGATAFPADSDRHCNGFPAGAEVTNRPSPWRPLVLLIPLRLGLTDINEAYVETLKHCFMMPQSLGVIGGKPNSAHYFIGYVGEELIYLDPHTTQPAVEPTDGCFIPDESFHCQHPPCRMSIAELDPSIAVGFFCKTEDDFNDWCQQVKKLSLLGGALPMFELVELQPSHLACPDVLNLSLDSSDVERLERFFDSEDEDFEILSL
UniProt Q9UII2: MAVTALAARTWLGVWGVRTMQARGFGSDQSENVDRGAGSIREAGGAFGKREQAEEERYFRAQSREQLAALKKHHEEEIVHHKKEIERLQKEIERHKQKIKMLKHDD
UniProt P15313, whole entry, looked up: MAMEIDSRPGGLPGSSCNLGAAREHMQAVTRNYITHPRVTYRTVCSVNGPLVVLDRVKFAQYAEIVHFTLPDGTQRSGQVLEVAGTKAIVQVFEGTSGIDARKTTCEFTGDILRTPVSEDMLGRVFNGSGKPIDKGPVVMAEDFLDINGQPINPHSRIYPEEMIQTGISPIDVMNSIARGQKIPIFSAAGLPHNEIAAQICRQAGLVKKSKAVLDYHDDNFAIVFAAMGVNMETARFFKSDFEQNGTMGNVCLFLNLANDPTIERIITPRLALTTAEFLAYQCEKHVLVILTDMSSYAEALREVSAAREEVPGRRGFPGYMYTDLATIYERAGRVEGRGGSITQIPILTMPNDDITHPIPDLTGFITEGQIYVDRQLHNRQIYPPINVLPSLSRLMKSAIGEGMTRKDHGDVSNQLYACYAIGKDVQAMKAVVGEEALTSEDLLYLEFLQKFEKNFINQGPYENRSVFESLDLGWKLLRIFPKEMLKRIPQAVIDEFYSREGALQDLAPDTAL
UniProt P56378: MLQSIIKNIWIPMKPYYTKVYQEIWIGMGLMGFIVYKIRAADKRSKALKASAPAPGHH
UniProt Q9Y679: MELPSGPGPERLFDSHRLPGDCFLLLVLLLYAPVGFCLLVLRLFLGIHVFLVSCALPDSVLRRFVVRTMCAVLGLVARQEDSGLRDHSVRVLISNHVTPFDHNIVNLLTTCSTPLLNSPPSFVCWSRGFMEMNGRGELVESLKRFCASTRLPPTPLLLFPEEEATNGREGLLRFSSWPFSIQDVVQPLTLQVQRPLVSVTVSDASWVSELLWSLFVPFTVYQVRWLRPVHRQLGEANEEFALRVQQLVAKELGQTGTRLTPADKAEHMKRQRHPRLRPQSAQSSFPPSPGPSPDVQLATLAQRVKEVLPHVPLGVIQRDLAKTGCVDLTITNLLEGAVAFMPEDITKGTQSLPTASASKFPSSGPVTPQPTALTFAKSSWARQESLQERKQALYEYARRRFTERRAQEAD
UniProt Q9UBL3, whole entry, looked up: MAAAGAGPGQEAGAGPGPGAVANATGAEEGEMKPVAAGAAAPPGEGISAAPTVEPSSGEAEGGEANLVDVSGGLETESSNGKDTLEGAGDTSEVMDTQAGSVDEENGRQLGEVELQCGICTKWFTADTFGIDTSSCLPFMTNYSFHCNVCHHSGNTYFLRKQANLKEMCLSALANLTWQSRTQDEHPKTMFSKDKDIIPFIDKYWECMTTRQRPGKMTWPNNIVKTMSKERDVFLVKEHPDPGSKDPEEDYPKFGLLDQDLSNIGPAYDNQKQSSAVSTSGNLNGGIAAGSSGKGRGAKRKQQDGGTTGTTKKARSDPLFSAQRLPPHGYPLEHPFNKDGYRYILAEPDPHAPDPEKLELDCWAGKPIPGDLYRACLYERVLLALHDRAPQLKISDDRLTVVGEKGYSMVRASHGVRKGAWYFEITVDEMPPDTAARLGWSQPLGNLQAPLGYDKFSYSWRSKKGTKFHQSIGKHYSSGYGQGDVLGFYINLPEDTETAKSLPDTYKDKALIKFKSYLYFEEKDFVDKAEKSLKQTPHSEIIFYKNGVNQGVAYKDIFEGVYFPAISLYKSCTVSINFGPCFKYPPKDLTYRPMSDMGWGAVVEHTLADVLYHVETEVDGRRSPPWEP
UniProt O00244: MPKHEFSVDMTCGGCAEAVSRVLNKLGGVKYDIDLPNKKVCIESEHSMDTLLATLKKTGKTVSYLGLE
UniProt Q16864, whole entry, looked up: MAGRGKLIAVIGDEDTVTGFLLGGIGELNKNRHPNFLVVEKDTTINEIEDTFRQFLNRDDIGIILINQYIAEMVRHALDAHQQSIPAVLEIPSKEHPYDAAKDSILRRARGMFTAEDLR
UniProt Q13535: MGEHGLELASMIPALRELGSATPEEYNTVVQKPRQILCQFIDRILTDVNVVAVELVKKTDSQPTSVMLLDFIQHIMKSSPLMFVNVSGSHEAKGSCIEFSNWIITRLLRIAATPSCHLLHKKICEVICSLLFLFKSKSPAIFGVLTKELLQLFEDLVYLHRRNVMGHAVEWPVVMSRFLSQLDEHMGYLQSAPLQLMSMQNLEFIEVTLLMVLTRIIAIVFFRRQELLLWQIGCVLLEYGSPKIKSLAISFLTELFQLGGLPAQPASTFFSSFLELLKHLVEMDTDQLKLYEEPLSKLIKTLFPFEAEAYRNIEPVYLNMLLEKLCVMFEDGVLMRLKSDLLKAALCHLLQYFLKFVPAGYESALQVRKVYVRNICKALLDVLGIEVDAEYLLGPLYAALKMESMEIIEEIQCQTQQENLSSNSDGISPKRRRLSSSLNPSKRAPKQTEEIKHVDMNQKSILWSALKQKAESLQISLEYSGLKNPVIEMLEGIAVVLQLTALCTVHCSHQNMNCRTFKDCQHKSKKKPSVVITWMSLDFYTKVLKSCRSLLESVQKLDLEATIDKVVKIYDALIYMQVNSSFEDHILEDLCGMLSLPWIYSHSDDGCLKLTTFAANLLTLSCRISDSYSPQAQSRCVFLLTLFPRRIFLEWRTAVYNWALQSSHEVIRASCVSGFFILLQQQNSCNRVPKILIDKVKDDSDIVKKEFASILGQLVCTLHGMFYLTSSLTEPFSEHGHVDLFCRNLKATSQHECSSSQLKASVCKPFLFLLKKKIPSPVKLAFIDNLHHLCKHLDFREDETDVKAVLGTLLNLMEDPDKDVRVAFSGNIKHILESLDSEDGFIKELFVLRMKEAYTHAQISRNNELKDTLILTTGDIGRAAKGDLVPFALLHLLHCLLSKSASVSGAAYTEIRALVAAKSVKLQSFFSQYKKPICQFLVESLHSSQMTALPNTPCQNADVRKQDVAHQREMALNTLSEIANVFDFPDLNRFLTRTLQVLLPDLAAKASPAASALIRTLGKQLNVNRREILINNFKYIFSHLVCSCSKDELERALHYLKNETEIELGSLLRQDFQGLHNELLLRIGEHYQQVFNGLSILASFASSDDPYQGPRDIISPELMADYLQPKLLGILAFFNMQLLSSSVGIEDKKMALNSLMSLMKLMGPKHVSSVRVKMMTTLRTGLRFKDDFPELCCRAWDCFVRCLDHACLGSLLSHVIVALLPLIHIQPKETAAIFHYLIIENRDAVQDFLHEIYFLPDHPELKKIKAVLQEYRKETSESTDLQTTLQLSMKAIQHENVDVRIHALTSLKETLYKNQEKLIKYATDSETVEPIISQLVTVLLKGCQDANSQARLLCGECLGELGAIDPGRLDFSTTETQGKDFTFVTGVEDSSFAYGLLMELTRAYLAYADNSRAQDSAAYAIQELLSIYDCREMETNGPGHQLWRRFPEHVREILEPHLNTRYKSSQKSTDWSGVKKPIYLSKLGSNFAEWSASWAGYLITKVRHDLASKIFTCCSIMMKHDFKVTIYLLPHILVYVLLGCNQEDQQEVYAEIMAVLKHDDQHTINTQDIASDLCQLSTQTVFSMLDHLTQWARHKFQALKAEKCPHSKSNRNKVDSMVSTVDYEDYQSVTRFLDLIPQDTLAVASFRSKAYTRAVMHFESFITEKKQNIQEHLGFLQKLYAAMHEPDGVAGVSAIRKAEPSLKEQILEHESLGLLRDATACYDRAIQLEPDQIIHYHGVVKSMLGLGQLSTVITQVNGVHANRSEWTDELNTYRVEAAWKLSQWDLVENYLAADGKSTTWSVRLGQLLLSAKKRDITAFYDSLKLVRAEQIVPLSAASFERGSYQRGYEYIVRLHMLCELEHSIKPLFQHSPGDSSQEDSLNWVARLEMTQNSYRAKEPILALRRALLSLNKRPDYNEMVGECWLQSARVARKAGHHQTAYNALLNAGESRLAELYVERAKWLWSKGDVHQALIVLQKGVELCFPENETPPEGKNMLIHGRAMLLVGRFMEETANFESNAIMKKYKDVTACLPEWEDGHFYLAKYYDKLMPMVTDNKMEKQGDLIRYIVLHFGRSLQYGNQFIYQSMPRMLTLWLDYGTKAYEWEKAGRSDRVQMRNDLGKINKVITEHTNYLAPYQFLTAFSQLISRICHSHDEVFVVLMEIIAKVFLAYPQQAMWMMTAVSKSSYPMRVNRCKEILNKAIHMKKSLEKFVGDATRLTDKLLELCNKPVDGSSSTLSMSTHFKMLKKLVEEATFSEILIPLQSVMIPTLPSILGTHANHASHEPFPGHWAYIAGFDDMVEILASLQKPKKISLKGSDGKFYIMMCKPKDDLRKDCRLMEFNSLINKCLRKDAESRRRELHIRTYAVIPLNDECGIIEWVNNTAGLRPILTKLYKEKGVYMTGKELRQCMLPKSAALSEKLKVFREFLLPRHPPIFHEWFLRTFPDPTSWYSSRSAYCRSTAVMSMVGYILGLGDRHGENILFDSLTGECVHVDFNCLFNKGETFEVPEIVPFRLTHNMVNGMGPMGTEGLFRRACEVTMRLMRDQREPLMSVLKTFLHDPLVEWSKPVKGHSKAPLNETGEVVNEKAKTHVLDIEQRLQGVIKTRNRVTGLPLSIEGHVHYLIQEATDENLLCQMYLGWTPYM
UniProt Q9Y6H3: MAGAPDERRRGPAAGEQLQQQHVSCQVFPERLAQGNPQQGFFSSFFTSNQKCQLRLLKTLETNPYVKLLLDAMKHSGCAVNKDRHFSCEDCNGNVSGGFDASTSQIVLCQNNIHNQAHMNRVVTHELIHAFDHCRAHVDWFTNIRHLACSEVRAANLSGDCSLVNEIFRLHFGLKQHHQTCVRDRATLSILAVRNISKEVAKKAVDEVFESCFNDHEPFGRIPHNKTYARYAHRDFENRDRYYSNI
UniProt Q9NWX5: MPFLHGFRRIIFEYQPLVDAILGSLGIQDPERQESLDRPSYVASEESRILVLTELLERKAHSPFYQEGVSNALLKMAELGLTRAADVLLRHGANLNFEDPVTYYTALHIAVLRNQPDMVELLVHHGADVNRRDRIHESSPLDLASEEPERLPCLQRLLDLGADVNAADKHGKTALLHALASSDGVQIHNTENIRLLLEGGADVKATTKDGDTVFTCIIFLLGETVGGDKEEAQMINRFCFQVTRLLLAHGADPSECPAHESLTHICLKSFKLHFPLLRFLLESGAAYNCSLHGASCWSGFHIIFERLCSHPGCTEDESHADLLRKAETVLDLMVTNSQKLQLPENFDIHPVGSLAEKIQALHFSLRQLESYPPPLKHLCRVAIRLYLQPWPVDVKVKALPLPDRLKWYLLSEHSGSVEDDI

This is one part of the list.

Compound in the first experiment: Cc1nc(Nc2n[nH]c3c2CN(C(=O)N[C@H](CN(C)C)c2ccccc2)C3(C)C)c2sccc2n1
The experiment can be described thus: log2 fold change, soluble protein after heating vs DMSO (PISA); higher = thermal stabilisation; K562 lysate, 10 uM; active = over 0.2 and 3.5 SD of the protein, either way, in both replicates (recomputed). The gist of the method: (§1)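 Values give the log-two fold change in thermal stability against solvent controls, from duplicates. Crude K562 extract at 1 mg/mL protein, made by dounce homogenisation in PBS pH 7.4 with 1 mM MgCl2, was treated with 10 μM compound for 30 min. After 3 min heating across 48°C-58°C, aliquots were pooled, adjusted to 0.5% NP-40 at 4°C and centrifuged at 21,000xg for 90 min. The supernatant was measured by TMTpro 16plex LC-MS/MS with channel sums equalised.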
Regarding ASF1A (UniProt Q9Y294), the log2 fold change is inactive: 0.033.
Still for that read-out and setting: as for ATP2B1 isoform 1 (UniProt P20020), the figure is inactive: 0.041.
Turning to ASF1B (UniProt Q9NVP2), the log2 fold change was inactive: -0.045.
The same measure, in the same setting: the value for ATP2A3 isoform 2 (UniProt Q93084) was inactive: 0.042; that for ATL2 (UniProt Q8NHH9) was inactive: 0.032; that for ASCC2 (UniProt Q9H1I8) was inactive: -0.029.
Same read-out and setting: as for ASNS (UniProt P08243), the figure is inactive: -0.008.
ATP9B (UniProt O43861): the log2 fold change is inactive: 0.164.
For the target ASS1 (UniProt P00966), the log2 fold change was inactive: -0.073.
The same measure, in the same setting: as for ATP5F1D (UniProt P30049), the figure is inactive: -0.015; as for ATG4B (UniProt Q9Y4P1), inactive: 0.001.
On the same count and under the same terms, as for ATG2A isoform 3 (UniProt Q2TAZ0), the figure is inactive: -0.015.
On the same count and under the same terms, as for ATP5IF1 (UniProt Q9UII2), the figure is inactive: -0.04; as for ATP6V1B1 (UniProt P15313), inactive: 0.029.
On to ATP6V1A (UniProt P38606), for which the log2 fold change was inactive: -0.003.
The same measure, in the same setting: as for ATE1 isoform 2 (UniProt O95260), the figure is inactive: -0.006; as for ATP5MF-PTCD1 (UniProt G3V325), inactive: -0.043.
Same read-out and setting: as for ATP5MPL (UniProt P56378), the figure is inactive: 0.017.
On the same count and under the same terms, the value for ATP5PB (UniProt P24539) was inactive: -0.017; that for AUP1 (UniProt Q9Y679) was inactive: -0.019; that for ATXN10 (UniProt Q9UBB4) was inactive: -0.022.
In the case of ASH2L (UniProt Q9UBL3), the log2 fold change was inactive: -0.036.
Still for that read-out and setting: the value for ATOX1 (UniProt O00244) was inactive: 0.04; that for ATP13A3 (UniProt Q9H7F0) was inactive: 0.026; that for ATP6V1F isoform 2 (UniProt Q16864) was inactive: 0.029.
On the same count and under the same terms, the value for ATP6V1E1 (UniProt P36543) was inactive: -0.016; that for ASNA1 (UniProt O43681) was inactive: 0.008.
The same measure, in the same setting: the value for ATP11B (UniProt Q9Y2G3) was inactive: 0.001.
ATR (UniProt Q13535): the log2 fold change was inactive: 0.002.
The same measure, in the same setting: the value for ATF1 (UniProt P18846) was inactive: 0.058; that for ATP23 (UniProt Q9Y6H3) was inactive: 0.006.
On the same count and under the same terms, as for ATP6V0A2 (UniProt Q9Y487), the figure is inactive: -0.008; as for ASB6 (UniProt Q9NWX5), inactive: 0.01.

Compound in the next experiment: Cc1nc(Nc2ncc(C(=O)Nc3c(C)cccc3Cl)s2)cc(N2CCN(CCO)CC2)n1 [dasatinib]
Described as above. The gist of the method:
as §1
ASF1A (UniProt Q9Y294): the log2 fold change is inactive: 0.05.
Still for that read-out and setting: the value for ATP2B1 isoform 1 (UniProt P20020) was inactive: -0.02; that for ASF1B (UniProt Q9NVP2) was inactive: -0.015.
ATP2A3 isoform 2 (UniProt Q93084): the log2 fold change is inactive: -0.077.
The same measure, in the same setting: as for ATL2 (UniProt Q8NHH9), the figure is inactive: -0.034; as for ASCC2 (UniProt Q9H1I8), inactive: -0.01; as for ASNS (UniProt P08243), inactive: -0.039.
Still for that read-out and setting: the value for ATP9B (UniProt O43861) was inactive: -0.04; that for ASS1 (UniProt P00966) was inactive: 0.092; that for ATP5F1D (UniProt P30049) was inactive: -0.023.
On to ATG4B (UniProt Q9Y4P1), for which the log2 fold change was inactive: -0.049.
On the same count and under the same terms, as for ATG2A isoform 3 (UniProt Q2TAZ0), the figure is inactive: -0.054.
The same measure, in the same setting: the value for ATP5IF1 (UniProt Q9UII2) was inactive: -0.013.
As to ATP6V1B1 (UniProt P15313), the log2 fold change was inactive: 0.034.
For ATP6V1A (UniProt P38606), the log2 fold change is inactive: -0.007.
Still for that read-out and setting: as for ATE1 isoform 2 (UniProt O95260), the figure is inactive: 0.069.
On the same count and under the same terms, as for ATP5MF-PTCD1 (UniProt G3V325), the figure is inactive: 0.051.
Still for that read-out and setting: as for ATP5MPL (UniProt P56378), the figure is inactive: 0.032; as for ATP5PB (UniProt P24539), inactive: 0.037.
Take AUP1 (UniProt Q9Y679): the log2 fold change is inactive: -0.015.
Consider ATXN10 (UniProt Q9UBB4), for which the log2 fold change was inactive: -0.01.
On the same count and under the same terms, as for ASH2L (UniProt Q9UBL3), the figure is inactive: 0.03; as for ATOX1 (UniProt O00244), inactive: -0.015; as for ATP13A3 (UniProt Q9H7F0), inactive: 0.009.
The same measure, in the same setting: as for ATP6V1F isoform 2 (UniProt Q16864), the figure is inactive: 0; as for ATP6V1E1 (UniProt P36543), inactive: -0.018; as for ASNA1 (UniProt O43681), inactive: -0.081.
On the same count and under the same terms, as for ATP11B (UniProt Q9Y2G3), the figure is inactive: 0.008.
As to ATR (UniProt Q13535), the log2 fold change was inactive: 0.001.
On the same count and under the same terms, as for ATF1 (UniProt P18846), the figure is inactive: 0.007; as for ATP23 (UniProt Q9Y6H3), inactive: -0.016; as for ATP6V0A2 (UniProt Q9Y487), inactive: -0.028.
On the same count and under the same terms, the value for ASB6 (UniProt Q9NWX5) was inactive: 0.01.

Compound in another experiment: Cc1ncc(-c2ccnc(Nc3ccc(S(C)(=O)=O)cc3)n2)n1C(C)C
Described as above. The gist of the method:
as §1
ASF1A (UniProt Q9Y294): the log2 fold change is inactive: 0.001.
The same measure, in the same setting: as for ATP2B1 isoform 1 (UniProt P20020), the figure is inactive: 0.01; as for ASF1B (UniProt Q9NVP2), inactive: 0.028.
Same read-out and setting: the value for ATP2A3 isoform 2 (UniProt Q93084) was inactive: 0.047; that for ATL2 (UniProt Q8NHH9) was inactive: -0.047; that for ASCC2 (UniProt Q9H1I8) was inactive: -0.018.
As to ASNS (UniProt P08243), the log2 fold change was inactive: -0.018.
With ATP9B (UniProt O43861), the log2 fold change is inactive: -0.069.
On the same count and under the same terms, the value for ASS1 (UniProt P00966) was inactive: 0.038.
With ATP5F1D (UniProt P30049), the log2 fold change was inactive: 0.04.
In the case of ATG4B (UniProt Q9Y4P1), the log2 fold change is inactive: 0.008.
On the same count and under the same terms, as for ATG2A isoform 3 (UniProt Q2TAZ0), the figure is inactive: 0.019; as for ATP5IF1 (UniProt Q9UII2), inactive: 0.026; as for ATP6V1B1 (UniProt P15313), inactive: -0.045.
The same measure, in the same setting: as for ATP6V1A (UniProt P38606), the figure is inactive: 0.004.
Still for that read-out and setting: as for ATE1 isoform 2 (UniProt O95260), the figure is inactive: -0.032; as for ATP5MF-PTCD1 (UniProt G3V325), inactive: 0.007.
Consider ATP5MPL (UniProt P56378), for which the log2 fold change is inactive: 0.122.
As to ATP5PB (UniProt P24539), the log2 fold change was inactive: 0.009.
Consider AUP1 (UniProt Q9Y679), for which the log2 fold change was inactive: 0.067.
Same read-out and setting: as for ATXN10 (UniProt Q9UBB4), the figure is inactive: -0.011; as for ASH2L (UniProt Q9UBL3), inactive: -0.014.
On the same count and under the same terms, as for ATOX1 (UniProt O00244), the figure is inactive: 0.131; as for ATP13A3 (UniProt Q9H7F0), inactive: 0.026.
The same measure, in the same setting: as for ATP6V1F isoform 2 (UniProt Q16864), the figure is inactive: 0.25; as for ATP6V1E1 (UniProt P36543), inactive: -0.008.
Regarding ASNA1 (UniProt O43681), the log2 fold change is inactive: 0.01.
As for ATP11B (UniProt Q9Y2G3), the log2 fold change was inactive: 0.011.
On the same count and under the same terms, the value for ATR (UniProt Q13535) was inactive: 0.013; that for ATF1 (UniProt P18846) was inactive: 0.072.
As to ATP23 (UniProt Q9Y6H3), the log2 fold change is inactive: -0.01.
The same measure, in the same setting: the value for ATP6V0A2 (UniProt Q9Y487) was inactive: 0.027.
The same measure, in the same setting: as for ASB6 (UniProt Q9NWX5), the figure is inactive: 0.029.
